Measurements from publication PMC7876276.
These are yes or no findings as the source states them, for the method shown. Where a sequence is shown, tags or fusion partners need not be part of it. Values belong to the binder of their own block, whether it stands above or below them.

Target: T1, LexA-Alk1 (Saccharomyces cerevisiae) (UniProt P43633)
T1 sequence: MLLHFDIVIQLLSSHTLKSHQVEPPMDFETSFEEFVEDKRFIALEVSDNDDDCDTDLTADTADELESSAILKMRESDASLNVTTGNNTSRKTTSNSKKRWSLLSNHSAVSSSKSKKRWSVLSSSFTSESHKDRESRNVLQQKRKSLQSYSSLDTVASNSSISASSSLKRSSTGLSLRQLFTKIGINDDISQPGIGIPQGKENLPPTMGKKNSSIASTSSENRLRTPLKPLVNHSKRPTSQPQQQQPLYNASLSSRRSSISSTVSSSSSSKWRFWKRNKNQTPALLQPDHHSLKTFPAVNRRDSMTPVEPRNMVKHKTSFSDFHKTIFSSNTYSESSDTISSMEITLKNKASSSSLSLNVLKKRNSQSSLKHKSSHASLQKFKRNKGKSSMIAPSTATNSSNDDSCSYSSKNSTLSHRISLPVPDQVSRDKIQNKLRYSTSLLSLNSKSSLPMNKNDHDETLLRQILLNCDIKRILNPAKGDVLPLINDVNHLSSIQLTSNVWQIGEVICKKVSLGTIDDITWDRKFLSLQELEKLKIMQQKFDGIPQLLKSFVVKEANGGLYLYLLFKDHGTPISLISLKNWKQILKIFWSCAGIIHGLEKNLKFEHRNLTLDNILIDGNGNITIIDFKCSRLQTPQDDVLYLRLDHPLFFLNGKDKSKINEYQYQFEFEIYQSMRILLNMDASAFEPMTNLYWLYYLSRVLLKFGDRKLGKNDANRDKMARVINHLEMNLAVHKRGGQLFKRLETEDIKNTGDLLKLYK
Experiment: two-hybrid; LexA bait (pEG202) and B42-3HA prey (pJG4-5) in EGY42 yeast with lacZ reporter on pSH18-34; patches on selective raffinose/galactose plates with X-Gal, overnight at 28°C

- binding: no binding
B1: B42-3HA-Mih1 (enzyme, UniProt P23748 1-554)
chain: MNNIFHGTEDECANEDVLSFQKISLKSPFGKKKNIFRNVQTFFKSKSKHSNVDDDLINKENLAFDKSPLLTNHRSKEIDGPSPNIKQLGHRDELDENENENDDIVLSMHFASQTLQSPTRNSSRRSLTNNRDNDLLSRIKYPGSPQRSSSFSRSRSLSRKPSMNSSSNSSRRVQRQDGKIPRSSRKSSQKFSNITQNTLNFTSASSSPLAPNSVGVKCFESCLAKTQIPYYYDDRNSNDFFPRISPETLKNILQNNMCESFYNSCRIIDCRFEYEYTGGHIINSVNIHSRDELEYEFIHKVLHSDTSNNNTLPTLLIIHCEFSSHRGPSLASHLRNCDRIINQDHYPKLFYPDILILDGGYKAVFDNFPELCYPRQYVGMNSQENLLNCEQEMDKFRRESKRFATKNNSFRKLASPSNPNFFYRDSHQSSTTMASSALSFRFEPPPKLSLNHRRVSSGSSLNSSESTGDENFFPILSKSSMSSNSNLSTSHMLLMDGLDTPSYFSFEDERGNHQQVSGDEEQDGDFTFVGSDREDLPRPARRSLFPSLETEDKK

- binding: no binding
B2: B42-3HA-Swe1 (enzyme, UniProt P32944 1-819)
chain: MSSLDEDEEDFEMLDTENLQFMGKKMFGKQAGEDESDDFAIGGSTPTNKLKFYPYSNNKLTRSTGTLNLSLSNTALSEANSKFLGKIEEEEEEEEEGKDEESVDSRIKRWSPFHENESVTTPITKRSAEKTNSPISLKQWNQRWFPKNDARTENTSSSSSYSVAKPNQSAFTSSGLVSKMSMDTSLYPAKLRIPETPVKKSPLVEGRDHKHVHLSSSKNASSSLSVSPLNFVEDNNLQEDLLFSDSPSSKALPSIHVPTIDSSPLSEAKYHAHDRHNNQTNILSPTNSLVTNSSPQTLHSNKFKKIKRARNSVILKNRELTNSLQQFKDDLYGTDENFPPPIIISSHHSTRKNPQPYQFRGRYDNDTDEEISTPTRRKSIIGATSQTHRESRPLSLSSAIVTNTTSAETHSISSTDSSPLNSKRRLISSNKLSANPDSHLFEKFTNVHSIGKGQFSTVYQVTFAQTNKKYAIKAIKPNKYNSLKRILLEIKILNEVTNQITMDQEGKEYIIDYISSWKFQNSYYIMTELCENGNLDGFLQEQVIAKKKRLEDWRIWKIIVELSLALRFIHDSCHIVHLDLKPANVMITFEGNLKLGDFGMATHLPLEDKSFENEGDREYIAPEIISDCTYDYKADIFSLGLMIVEIAANVVLPDNGNAWHKLRSGDLSDAGRLSSTDIHSESLFSDITKVDTNDLFDFERDNISGNSNNAGTSTVHNNSNINNPNMNNGNDNNNVNTAATKNRLILHKSSKIPAWVPKFLIDGESLERIVRWMIEPNYERRPTANQILQTEECLYVEMTRNAGAIIQEDDFGPKPKFFI
